{"sequences": {"note": "By UniProt entry, the sequences of proteins in these tests, tags left out. Where a name states a change or a piece, a line headed by the entry shows the natural chain unless it says otherwise.", "UniProt Q9BYT8, whole entry, looked up": "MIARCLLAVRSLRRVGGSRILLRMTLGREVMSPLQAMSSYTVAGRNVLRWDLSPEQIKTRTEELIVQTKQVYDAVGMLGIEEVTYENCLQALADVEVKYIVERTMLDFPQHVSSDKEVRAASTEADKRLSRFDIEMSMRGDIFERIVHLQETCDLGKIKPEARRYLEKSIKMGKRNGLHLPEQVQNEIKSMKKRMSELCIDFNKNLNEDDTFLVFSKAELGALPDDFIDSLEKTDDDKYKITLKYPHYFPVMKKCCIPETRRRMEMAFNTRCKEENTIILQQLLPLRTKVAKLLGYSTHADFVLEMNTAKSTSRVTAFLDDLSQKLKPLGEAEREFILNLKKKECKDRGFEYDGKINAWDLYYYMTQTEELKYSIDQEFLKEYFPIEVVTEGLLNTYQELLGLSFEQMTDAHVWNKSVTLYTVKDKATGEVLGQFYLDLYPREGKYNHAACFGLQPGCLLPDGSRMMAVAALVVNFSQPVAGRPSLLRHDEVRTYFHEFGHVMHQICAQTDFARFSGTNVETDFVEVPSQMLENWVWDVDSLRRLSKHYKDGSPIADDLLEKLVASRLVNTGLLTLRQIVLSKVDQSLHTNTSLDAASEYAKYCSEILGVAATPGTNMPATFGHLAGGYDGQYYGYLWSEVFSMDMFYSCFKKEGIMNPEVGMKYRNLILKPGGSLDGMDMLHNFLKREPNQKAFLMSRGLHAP", "UniProt Q9Y639": "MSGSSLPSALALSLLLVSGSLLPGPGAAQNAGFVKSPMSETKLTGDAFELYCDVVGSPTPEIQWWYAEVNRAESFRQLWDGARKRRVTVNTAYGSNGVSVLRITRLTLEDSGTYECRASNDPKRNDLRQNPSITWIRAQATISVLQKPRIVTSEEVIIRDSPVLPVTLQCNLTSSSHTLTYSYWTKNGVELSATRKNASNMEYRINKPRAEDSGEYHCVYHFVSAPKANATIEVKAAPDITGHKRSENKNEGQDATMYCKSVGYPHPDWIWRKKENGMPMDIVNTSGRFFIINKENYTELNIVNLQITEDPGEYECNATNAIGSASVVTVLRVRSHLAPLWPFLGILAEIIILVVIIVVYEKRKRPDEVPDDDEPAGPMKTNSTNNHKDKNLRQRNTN", "UniProt Q8NDH3": "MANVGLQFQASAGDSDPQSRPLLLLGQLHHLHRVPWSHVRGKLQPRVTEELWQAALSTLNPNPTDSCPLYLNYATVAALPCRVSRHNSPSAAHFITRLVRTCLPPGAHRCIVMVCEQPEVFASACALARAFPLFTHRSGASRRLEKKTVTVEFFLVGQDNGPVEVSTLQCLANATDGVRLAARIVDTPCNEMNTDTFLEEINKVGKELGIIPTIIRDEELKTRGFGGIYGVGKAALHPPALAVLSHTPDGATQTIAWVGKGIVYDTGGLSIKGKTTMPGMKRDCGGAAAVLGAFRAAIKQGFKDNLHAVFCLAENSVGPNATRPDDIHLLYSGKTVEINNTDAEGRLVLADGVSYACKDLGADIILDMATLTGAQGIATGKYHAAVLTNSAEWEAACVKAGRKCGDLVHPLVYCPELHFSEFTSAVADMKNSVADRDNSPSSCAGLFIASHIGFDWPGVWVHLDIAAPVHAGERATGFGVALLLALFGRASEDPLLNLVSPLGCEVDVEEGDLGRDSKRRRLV", "UniProt O96028": "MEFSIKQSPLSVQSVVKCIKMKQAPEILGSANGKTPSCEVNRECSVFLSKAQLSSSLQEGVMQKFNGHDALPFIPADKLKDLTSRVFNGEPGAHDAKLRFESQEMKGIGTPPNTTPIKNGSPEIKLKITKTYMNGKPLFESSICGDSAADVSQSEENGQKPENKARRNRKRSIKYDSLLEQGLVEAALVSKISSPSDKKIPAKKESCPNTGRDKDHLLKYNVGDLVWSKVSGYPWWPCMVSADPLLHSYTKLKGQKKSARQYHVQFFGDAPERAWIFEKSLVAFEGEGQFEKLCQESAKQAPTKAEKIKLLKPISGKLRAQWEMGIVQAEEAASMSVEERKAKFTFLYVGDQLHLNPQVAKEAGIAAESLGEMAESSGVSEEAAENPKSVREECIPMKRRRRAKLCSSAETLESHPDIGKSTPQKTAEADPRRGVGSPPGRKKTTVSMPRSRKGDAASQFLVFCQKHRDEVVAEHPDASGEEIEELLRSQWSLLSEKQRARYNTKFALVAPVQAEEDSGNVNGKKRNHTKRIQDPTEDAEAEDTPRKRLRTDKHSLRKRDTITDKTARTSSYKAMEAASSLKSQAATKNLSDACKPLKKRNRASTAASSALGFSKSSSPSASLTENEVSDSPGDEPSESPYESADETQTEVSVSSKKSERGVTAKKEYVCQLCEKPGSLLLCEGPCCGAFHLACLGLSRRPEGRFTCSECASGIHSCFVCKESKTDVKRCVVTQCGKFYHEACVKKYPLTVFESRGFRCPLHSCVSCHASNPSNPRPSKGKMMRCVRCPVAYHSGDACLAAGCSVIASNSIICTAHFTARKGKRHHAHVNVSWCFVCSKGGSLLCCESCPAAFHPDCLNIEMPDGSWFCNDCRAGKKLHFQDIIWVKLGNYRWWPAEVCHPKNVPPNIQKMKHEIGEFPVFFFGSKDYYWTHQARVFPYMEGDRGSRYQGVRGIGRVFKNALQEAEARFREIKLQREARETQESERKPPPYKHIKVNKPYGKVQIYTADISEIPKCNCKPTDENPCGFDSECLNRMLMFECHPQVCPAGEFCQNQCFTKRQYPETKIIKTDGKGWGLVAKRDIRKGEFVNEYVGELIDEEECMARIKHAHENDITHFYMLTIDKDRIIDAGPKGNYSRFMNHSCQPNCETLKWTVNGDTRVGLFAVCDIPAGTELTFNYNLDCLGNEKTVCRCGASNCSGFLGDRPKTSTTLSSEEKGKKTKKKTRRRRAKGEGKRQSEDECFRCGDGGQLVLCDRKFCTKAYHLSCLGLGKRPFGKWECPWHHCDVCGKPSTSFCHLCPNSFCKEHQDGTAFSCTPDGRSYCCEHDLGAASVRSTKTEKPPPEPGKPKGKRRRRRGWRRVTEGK", "UniProt P46087": "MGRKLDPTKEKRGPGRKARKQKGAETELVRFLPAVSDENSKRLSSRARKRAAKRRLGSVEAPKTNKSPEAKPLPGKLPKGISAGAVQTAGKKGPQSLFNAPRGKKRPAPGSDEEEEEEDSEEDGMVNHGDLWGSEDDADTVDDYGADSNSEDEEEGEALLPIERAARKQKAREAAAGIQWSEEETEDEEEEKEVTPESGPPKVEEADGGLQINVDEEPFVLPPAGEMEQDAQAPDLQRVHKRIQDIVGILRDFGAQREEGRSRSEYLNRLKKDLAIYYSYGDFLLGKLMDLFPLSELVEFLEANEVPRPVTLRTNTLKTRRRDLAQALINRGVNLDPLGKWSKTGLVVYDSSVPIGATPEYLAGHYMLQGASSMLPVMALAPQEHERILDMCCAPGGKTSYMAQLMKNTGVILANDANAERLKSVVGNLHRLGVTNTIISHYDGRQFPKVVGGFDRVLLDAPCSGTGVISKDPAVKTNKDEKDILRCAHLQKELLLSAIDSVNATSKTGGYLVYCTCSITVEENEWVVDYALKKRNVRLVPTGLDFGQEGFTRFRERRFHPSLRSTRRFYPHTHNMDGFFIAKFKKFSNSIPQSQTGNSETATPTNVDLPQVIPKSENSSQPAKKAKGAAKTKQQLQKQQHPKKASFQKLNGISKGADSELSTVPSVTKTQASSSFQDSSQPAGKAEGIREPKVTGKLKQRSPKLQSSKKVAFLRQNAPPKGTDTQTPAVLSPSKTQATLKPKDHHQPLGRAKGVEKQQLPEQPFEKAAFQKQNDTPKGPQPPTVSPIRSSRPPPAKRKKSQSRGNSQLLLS", "UniProt Q08J23, whole entry, looked up": "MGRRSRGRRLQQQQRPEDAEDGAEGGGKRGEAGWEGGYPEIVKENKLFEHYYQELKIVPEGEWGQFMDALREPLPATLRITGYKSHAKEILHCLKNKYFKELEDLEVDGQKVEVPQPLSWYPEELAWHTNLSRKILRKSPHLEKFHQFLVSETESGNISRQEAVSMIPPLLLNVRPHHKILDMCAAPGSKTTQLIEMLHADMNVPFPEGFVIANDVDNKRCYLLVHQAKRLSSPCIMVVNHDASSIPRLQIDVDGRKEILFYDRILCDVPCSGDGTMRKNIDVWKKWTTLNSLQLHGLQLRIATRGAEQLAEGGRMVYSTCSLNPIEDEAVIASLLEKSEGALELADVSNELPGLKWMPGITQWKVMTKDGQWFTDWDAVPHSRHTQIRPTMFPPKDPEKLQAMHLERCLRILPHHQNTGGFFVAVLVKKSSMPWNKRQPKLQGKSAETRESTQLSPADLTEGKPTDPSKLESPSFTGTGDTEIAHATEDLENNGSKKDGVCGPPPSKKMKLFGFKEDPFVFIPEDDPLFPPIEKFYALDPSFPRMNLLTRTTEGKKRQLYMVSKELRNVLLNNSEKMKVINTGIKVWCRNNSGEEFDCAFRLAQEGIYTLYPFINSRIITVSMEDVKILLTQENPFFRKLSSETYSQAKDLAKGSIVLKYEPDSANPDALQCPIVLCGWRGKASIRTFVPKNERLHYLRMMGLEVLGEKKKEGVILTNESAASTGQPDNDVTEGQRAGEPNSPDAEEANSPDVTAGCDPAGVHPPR", "UniProt Q86WQ0": "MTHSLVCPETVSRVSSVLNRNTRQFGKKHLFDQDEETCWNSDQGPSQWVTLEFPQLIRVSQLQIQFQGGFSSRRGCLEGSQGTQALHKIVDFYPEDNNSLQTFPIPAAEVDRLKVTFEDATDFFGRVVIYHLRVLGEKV", "UniProt Q9BVI4": "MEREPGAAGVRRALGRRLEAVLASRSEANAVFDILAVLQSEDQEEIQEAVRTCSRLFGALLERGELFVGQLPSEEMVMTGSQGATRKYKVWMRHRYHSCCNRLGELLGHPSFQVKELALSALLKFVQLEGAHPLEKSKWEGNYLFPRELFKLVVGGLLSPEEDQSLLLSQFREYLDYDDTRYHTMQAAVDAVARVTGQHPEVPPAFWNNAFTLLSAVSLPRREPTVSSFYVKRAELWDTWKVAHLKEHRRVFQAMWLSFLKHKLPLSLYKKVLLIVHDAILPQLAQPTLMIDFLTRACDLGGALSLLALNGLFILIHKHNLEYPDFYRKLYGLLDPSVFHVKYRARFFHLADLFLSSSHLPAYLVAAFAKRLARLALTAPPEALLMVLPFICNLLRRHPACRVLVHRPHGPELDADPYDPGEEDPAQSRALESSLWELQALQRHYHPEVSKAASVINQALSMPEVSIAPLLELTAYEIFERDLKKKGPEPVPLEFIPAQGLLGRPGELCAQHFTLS", "UniProt P49116": "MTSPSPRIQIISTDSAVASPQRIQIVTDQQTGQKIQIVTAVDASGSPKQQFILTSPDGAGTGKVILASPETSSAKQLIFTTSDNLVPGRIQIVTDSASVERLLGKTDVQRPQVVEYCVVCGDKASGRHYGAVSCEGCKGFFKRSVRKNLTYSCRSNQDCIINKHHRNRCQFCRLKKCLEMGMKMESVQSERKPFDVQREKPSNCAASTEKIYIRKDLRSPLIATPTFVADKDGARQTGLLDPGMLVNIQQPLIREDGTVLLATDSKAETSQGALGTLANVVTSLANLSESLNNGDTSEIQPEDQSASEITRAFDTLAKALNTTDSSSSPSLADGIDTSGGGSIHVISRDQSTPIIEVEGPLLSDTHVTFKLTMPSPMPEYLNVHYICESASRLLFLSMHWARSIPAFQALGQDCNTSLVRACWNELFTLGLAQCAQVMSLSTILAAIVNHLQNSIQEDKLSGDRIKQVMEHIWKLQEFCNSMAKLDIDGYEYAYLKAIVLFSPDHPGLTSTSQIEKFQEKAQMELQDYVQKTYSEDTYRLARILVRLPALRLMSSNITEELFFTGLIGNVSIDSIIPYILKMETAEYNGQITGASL", "UniProt P46459": "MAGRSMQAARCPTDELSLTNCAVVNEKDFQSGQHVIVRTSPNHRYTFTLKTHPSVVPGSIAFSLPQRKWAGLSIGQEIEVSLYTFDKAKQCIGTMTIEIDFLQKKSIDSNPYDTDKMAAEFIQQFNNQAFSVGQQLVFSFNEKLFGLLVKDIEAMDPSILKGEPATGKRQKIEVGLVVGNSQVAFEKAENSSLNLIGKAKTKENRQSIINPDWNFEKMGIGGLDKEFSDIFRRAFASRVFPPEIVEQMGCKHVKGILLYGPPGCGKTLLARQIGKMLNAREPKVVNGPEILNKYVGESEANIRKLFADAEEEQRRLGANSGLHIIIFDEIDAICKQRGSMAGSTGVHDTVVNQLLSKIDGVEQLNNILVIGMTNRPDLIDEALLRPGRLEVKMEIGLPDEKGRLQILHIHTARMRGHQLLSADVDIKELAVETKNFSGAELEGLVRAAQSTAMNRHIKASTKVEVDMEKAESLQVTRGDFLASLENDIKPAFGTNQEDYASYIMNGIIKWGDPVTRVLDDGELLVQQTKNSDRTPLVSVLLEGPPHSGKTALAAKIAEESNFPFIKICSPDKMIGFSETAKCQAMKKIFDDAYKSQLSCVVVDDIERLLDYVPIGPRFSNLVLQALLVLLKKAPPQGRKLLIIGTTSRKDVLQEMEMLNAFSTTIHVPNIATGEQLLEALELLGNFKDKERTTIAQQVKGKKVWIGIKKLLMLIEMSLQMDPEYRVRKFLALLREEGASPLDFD"}, "source": "the supplement of paper PMC12067093", "about": "“Discovery and optimisation of a covalent ligand for TRIM25 and its application to targeted protein ubiquitination” (Chemical Science, 2025)", "note": "This is one part of the list.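 Note: competitive profiling in live THP-1 cells: cysteine peptides tagged with an iodoacetamide desthiobiotin (IA-DTB) probe, intensity after compound treatment relative to DMSO-treated cells.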"}
{"compound": "Cc1cc(ccc1-c1ccccc1)C(=O)N1CCCN(CC1)C(=O)CCl [compound 10]", "test": "probe-labelled cysteine peptide fold change vs DMSO (competition) (log2 fold change); higher = less target engagement (more negative = stronger competition)", "conditions": "50 µM; THP-1; incubation time: 4 h"}
{"target": "NLN_Q9BYT8_153_IVHLQETCDLGK (UniProt Q9BYT8)", "probe-labelled cysteine peptide fold change": -0.0185}
{"target": "NPTN_Q9Y639_259_NEGQDATMYCK (UniProt Q9Y639)", "probe-labelled cysteine peptide fold change": -0.0448}
{"target": "NRDC_O43847_690_IVNTPQGCLWYKK (UniProt O43847)", "probe-labelled cysteine peptide fold change": -0.413}
{"target": "NPEPL1_Q8NDH3_397_YHAAVLTNSAEWEAACVK (UniProt Q8NDH3)", "probe-labelled cysteine peptide fold change": 0.0602}
{"target": "NSD3_Q9BZ95_495_CNMSPVVK (UniProt Q9BZ95)", "probe-labelled cysteine peptide fold change": -0.465}
{"target": "NSD2_O96028_899_WWPAEVCHPK (UniProt O96028)", "probe-labelled cysteine peptide fold change": -0.0255}
{"target": "NOP2_P46087_393_ILDMCCAPGGK (UniProt P46087)", "probe-labelled cysteine peptide fold change": -0.287}
{"target": "NSUN2_Q08J23_93_EILHCLK (UniProt Q08J23)", "probe-labelled cysteine peptide fold change": -0.361}
{"target": "NR2C2AP_Q86WQ0_76_GCLEGSQGTQALHK (UniProt Q86WQ0)", "probe-labelled cysteine peptide fold change": -0.0145}
{"target": "NSMAF_Q92636_803_EGTVNIWDLTTATLMHQIPCHSGIVCDTAFSPDSR (UniProt Q92636)", "probe-labelled cysteine peptide fold change": -0.0111}
{"target": "NPEPL1_Q8NDH3_357_LVLADGVSYACK (UniProt Q8NDH3)", "probe-labelled cysteine peptide fold change": -0.142}
{"target": "NSMCE1_Q8WV22_207_ICNICHSLLIQGQSCETCGIR (UniProt Q8WV22)", "probe-labelled cysteine peptide fold change": 0.0458}
{"target": "NRDE2_Q9H7Z3_900_AYEHALQDCLGDSCVSNPAPTDSCSR (UniProt Q9H7Z3)", "probe-labelled cysteine peptide fold change": 0.333}
{"target": "NOTCH1_P46531_1293_VNDFHCECR (UniProt P46531)", "probe-labelled cysteine peptide fold change": -0.153}
{"target": "NOCT_Q9UK39_165_DNFVQCPVEALKWEER (UniProt Q9UK39)", "probe-labelled cysteine peptide fold change": -0.412}
{"target": "NOL9_Q5SY16_140_ALLLLPVEQGFTFSGICR (UniProt Q5SY16)", "probe-labelled cysteine peptide fold change": -0.0416}
{"target": "NR2C2AP_Q86WQ0_7_THSLVCPETVSR (UniProt Q86WQ0)", "probe-labelled cysteine peptide fold change": -0.0397}
{"target": "NRF1_Q16656_229_ESCKPIWWPEDIPWANVR (UniProt Q16656)", "probe-labelled cysteine peptide fold change": -0.0816}
{"target": "NOP2_P46087_487_CAHLQK (UniProt P46087)", "probe-labelled cysteine peptide fold change": -0.182}
{"target": "NRBP1_Q9UHY1_340_LLAAHCIVGHQHMIPENALEEITK (UniProt Q9UHY1)", "probe-labelled cysteine peptide fold change": 0.0216}
{"target": "NLN_Q9BYT8_458_YNHAACFGLQPGCLLPDGSR (UniProt Q9BYT8)", "probe-labelled cysteine peptide fold change": -0.117}
{"target": "NLN_Q9BYT8_507_TYFHEFGHVMHQICAQTDFAR (UniProt Q9BYT8)", "probe-labelled cysteine peptide fold change": 0.0395}
{"target": "NT5C3A_Q9H0P0_120_LVTDECR (UniProt Q9H0P0)", "probe-labelled cysteine peptide fold change": 0.287}
{"target": "NOC4L_Q9BVI4_100_HRYHSCCNR (UniProt Q9BVI4)", "probe-labelled cysteine peptide fold change": -0.743}
{"target": "NLN_Q9BYT8_451_YNHAACFGLQPGCLLPDGSR (UniProt Q9BYT8)", "probe-labelled cysteine peptide fold change": 0.0146}
{"target": "NT5C3B_Q969T7_73_IISEECR (UniProt Q969T7)", "probe-labelled cysteine peptide fold change": 0.268}
{"target": "NRBF2_Q96F24_155_SEPAEPCIGSK (UniProt Q96F24)", "probe-labelled cysteine peptide fold change": -0.527}
{"target": "NSUN2_Q08J23_221_RCYLLVHQAK (UniProt Q08J23)", "probe-labelled cysteine peptide fold change": 0.286}
{"target": "NPRL2_Q8WTW4_9_IECIFFSEFHPTLGPK (UniProt Q8WTW4)", "probe-labelled cysteine peptide fold change": -0.0352}
{"target": "NR2C2_P49116_153_NLTYSCR (UniProt P49116)", "probe-labelled cysteine peptide fold change": -0.0771}
{"target": "NSF_P46459_599_SQLSCVVVDDIER (UniProt P46459)", "probe-labelled cysteine peptide fold change": 0.242}
{"target": "NSD2_O96028_207_ESCPNTGR (UniProt O96028)", "probe-labelled cysteine peptide fold change": -0.32}
{"target": "NSF_P46459_334_LGANSGLHIIIFDEIDAICK (UniProt P46459)", "probe-labelled cysteine peptide fold change": 0.124}
{"target": "NOC4L_Q9BVI4_99_YHSCCNR (UniProt Q9BVI4)", "probe-labelled cysteine peptide fold change": 0.546}
{"target": "NSDHL_Q15738_40_CTVIGGSGFLGQHMVEQLLAR (UniProt Q15738)", "probe-labelled cysteine peptide fold change": 0.178}
{"target": "NOP58_Q9Y2X3_139_EMAAMCLGLAHSLSR (UniProt Q9Y2X3)", "probe-labelled cysteine peptide fold change": -0.0164}
{"target": "NPM1_P06748_21_MEDSMDMDMSPLRPQNYLFGCELK (UniProt P06748)", "probe-labelled cysteine peptide fold change": -0.505}
{"target": "NOL7_Q9UMY1_149_KNEDCEK (UniProt Q9UMY1)", "probe-labelled cysteine peptide fold change": -0.0639}
